The values below come from patent publication US9683238.

Chains of the proteins cited; added tags and fusions are not shown. Chains listed by the source or under a name are the forms on record and can include a tag or linker.
VEGF165 (vascular endothelial growth factor 165) (Homo sapiens), one chain, as listed by the source: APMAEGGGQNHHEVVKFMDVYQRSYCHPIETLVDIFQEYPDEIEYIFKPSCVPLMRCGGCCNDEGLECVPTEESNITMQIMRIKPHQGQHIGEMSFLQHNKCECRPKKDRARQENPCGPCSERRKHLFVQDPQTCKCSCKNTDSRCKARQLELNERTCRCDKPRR

Weaker means in comparison with the reference protein, sequence or condition of that experiment.

The data set deals with VEGF165 (vascular endothelial growth factor 165) (Homo sapiens). Kind of data set: ELONA. The note with it: antibody-captured VEGF; signal one eighth of FITC-3R02; purified recombinant protein; protein details: R&D Systems, expressed in Sf21 insect cells; label: 5'-FITC; single-stranded DNA; variant of VEap121.

As to “TGTGGGGGTGGACGGGCCGGGTAGA [FITC-VEap121]”, the binding result is “binds more weakly”.
